# Experimental data: patent publication US20010021697A1 (priority 1987, published 2001)
# Assay: peptide synthesis
# Conditions: whole synthesis, HPLC elution profile from a C18 column, acetonitrile gradient in 0.1% trifluoroacetate
substance,measurement,value
H-Gly-Ile-Gly-Ala-Val-Leu-Lys-Val-Leu-Thr-Thr-Gly-Leu-Pro-Ala-Leu-Ile-Ser-Trp-Ile-Lys-Lys-Lys-Lys-Gln-Gln-NH2 (GIGAVLKVLTTGLPALISWIKKKKQQ; printed: Gly-Ile-Gly-Ala-Val-Leu-Lys-Val-Leu-Thr-Thr-Gly-Leu-Pro-Ala-Leu-Ile-Ser-Trp-Ile-Lys-Lys-Lys-Lys-Gln-Gln-),purity (crude or final not stated),better than 98% pure
